No constants are given. Whether binding was seen depends on the method and setting. Binding seen in cells or lysates may run through a third protein. Some binding calls cover weakened binding; strength is not graded here.
Key:
β2-AR-mCerulean (human) [1] = biological target: β2-AR-mCerulean (human) (UniProt P07550); assay: pull-down; release step of the binding-and-release assay: 100 μM unlabeled Qp/Sp added to the precipitated beads holding β2-mCer through the biotinylated peptide; released receptor from mCer fluorescence of the supernatant, within 30 s; only the binder purified
β2-AR-mCerulean (human) [2] = biological target: β2-AR-mCerulean (human) (UniProt P07550); assay: pull-down; competition pull-down: 30 μM bioQp with 30 μM Qp or 50 μM PC-Qp, 100 μM isoproterenol, native membranes with 10 nM β2-mCer, streptavidin-coated magnetic beads; without UV or with UV exposure for 2 min before the beads; only the binder purified

Binder | binding (β2-AR-mCerulean (human) [1]) | binding (β2-AR-mCerulean (human) [2])
DTENIRFVFAAVKDTILQLNLKEYNLV [Qp (Gαq C terminus peptide)] | binds weakly | –
DTENIRFVFAAVKDTILQLNLKE [N-term fragment of PC-Qp after UV irradiation] | – | no binding (tested: 50 μM PC-Qp, UV-irradiated for 2 min)

From PMC6811539, “Minute-scale persistence of a GPCR conformation state triggered by non-cognate G protein interactions primes signaling” (Nature Communications, 2019)
